Compound in the assay: Nc1ncnc2c1ncn2[C@@H]1O[C@H](COP(=O)(O)OP(=O)(O)NP(=O)(O)O)[C@@H](O)[C@H]1O [adenylyl imidodiphosphate]
Kind of assay: NP40-soluble protein abundance relative to vehicle (solubility fold change) (ratio); higher = more soluble protein in presence of AMP-PNP. An outline of the steps:
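Across three independent experiments, values are fold changes against the detergent-processed vehicle for each replicate, based on vsn-normalised intensities. The samples were Jurkat crude lysate treated with eight concentrations (0.1 to 10 mM) for 10 min at room temperature and then 3 min at 37 °C. Lysate was solubilised with 0.8% NP40 and benzonase, ultracentrifuged, and the supernatant analysed by TMT-labelled LC-MS/MS.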

The chains behind the UniProt entries cited, without tags or fusion partners. Where a name states a change or a piece, a line headed by the entry shows the natural chain unless it says otherwise.
UniProt O60669: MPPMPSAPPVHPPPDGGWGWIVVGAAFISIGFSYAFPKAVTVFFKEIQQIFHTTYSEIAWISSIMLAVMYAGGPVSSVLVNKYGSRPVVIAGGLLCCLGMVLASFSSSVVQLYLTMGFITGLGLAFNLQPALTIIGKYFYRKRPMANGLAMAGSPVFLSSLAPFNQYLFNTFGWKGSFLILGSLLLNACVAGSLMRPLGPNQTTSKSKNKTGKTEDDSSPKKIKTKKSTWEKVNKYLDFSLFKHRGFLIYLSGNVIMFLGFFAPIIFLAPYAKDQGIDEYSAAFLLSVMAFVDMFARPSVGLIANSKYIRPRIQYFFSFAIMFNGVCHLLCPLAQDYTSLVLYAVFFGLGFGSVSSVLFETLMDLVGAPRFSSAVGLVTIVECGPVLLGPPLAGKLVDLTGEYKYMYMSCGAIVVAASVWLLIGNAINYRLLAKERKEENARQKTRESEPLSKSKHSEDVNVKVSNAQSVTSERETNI
UniProt O95372: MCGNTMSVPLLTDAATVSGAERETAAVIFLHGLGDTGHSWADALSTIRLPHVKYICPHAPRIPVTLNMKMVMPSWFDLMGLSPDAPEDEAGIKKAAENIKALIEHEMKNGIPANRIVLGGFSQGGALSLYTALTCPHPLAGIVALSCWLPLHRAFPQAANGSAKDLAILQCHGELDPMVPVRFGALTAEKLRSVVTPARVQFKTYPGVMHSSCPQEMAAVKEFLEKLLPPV
UniProt O60547: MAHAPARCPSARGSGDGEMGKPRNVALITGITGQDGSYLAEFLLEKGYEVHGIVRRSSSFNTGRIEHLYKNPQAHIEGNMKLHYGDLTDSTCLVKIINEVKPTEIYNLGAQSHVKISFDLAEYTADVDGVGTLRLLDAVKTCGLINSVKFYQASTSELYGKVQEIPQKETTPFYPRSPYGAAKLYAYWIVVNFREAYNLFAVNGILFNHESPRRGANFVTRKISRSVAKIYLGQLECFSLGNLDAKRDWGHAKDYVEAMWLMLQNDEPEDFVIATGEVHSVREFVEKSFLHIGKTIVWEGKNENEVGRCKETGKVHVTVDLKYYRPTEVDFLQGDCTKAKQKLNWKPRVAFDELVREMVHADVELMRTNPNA
UniProt O43929: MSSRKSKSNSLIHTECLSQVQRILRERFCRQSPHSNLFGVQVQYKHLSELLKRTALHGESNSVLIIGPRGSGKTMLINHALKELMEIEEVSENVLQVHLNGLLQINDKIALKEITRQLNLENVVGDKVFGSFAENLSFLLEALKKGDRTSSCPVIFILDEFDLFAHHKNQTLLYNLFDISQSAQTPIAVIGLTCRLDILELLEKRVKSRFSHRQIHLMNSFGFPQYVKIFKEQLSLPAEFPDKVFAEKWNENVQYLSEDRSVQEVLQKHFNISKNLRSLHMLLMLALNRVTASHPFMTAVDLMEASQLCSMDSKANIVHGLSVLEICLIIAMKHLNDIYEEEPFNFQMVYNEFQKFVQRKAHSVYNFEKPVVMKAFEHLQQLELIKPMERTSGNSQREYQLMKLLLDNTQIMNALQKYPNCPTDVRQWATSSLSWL
UniProt O75380, whole entry: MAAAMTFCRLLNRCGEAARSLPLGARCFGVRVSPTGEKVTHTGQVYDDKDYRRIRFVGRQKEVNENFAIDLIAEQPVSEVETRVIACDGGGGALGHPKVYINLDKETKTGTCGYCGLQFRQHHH
UniProt O60499: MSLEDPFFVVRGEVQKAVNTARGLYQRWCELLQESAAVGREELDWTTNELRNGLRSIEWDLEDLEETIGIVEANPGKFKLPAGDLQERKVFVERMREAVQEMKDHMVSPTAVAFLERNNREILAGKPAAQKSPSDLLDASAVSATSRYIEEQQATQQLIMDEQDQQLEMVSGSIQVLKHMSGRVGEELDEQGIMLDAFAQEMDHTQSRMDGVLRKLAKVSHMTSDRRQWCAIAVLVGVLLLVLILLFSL
UniProt O43920, whole entry: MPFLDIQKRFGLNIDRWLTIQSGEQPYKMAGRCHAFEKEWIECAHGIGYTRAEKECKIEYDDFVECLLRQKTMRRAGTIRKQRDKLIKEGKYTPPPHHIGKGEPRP
UniProt O75132: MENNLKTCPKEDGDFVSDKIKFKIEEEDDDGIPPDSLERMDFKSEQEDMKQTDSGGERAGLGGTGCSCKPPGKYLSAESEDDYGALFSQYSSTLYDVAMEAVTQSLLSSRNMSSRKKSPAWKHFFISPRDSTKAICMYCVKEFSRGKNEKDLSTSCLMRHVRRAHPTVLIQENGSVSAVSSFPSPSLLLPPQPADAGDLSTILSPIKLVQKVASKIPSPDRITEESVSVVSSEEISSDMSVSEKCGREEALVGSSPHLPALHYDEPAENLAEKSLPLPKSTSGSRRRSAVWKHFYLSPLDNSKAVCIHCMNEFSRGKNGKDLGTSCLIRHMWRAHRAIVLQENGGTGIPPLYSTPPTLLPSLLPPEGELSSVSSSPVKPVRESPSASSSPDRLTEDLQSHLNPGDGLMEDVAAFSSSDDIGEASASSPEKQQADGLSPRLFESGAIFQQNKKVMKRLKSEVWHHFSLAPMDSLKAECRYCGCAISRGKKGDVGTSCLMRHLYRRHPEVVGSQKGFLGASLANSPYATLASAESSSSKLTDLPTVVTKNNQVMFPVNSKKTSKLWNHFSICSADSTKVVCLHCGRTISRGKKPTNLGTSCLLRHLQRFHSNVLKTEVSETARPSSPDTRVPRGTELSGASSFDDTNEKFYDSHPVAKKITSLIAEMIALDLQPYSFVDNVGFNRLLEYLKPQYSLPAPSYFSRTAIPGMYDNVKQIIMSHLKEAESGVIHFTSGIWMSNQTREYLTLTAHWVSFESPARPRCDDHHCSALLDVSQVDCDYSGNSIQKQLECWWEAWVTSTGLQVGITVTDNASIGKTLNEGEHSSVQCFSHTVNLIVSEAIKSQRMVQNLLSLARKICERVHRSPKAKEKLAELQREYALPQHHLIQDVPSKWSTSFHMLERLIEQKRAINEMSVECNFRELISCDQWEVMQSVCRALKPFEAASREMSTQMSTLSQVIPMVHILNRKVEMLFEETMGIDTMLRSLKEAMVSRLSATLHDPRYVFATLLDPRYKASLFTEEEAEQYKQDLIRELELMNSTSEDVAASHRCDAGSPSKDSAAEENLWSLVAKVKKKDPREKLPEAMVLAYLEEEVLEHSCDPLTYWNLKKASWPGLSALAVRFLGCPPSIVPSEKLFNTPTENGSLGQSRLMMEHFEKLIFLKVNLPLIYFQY
UniProt O75791: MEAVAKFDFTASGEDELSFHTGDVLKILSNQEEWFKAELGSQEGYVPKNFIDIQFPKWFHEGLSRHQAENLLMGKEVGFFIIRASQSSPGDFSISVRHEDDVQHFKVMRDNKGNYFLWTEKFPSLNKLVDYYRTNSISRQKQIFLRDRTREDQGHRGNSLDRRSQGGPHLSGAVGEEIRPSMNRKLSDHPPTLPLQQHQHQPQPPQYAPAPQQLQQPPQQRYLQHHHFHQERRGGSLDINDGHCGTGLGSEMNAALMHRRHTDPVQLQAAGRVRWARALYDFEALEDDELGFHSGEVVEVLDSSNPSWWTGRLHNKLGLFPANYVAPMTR
UniProt O60911: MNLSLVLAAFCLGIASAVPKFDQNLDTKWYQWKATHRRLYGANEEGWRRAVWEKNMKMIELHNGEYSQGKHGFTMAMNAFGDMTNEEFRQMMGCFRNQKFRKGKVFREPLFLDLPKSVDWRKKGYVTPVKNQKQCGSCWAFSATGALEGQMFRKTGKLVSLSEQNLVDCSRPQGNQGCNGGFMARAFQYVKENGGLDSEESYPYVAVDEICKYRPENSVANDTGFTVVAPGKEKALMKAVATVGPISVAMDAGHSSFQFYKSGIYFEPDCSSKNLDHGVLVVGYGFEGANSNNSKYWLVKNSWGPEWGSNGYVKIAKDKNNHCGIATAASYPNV
UniProt O75208: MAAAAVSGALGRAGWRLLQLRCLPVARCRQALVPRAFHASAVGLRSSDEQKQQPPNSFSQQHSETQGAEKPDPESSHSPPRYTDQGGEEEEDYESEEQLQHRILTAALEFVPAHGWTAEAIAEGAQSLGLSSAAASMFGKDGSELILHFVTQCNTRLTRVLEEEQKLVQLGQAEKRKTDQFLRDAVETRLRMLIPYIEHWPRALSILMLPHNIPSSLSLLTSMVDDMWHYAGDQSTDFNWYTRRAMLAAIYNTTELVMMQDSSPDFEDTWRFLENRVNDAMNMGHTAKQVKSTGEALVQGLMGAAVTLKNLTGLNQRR
UniProt O75362: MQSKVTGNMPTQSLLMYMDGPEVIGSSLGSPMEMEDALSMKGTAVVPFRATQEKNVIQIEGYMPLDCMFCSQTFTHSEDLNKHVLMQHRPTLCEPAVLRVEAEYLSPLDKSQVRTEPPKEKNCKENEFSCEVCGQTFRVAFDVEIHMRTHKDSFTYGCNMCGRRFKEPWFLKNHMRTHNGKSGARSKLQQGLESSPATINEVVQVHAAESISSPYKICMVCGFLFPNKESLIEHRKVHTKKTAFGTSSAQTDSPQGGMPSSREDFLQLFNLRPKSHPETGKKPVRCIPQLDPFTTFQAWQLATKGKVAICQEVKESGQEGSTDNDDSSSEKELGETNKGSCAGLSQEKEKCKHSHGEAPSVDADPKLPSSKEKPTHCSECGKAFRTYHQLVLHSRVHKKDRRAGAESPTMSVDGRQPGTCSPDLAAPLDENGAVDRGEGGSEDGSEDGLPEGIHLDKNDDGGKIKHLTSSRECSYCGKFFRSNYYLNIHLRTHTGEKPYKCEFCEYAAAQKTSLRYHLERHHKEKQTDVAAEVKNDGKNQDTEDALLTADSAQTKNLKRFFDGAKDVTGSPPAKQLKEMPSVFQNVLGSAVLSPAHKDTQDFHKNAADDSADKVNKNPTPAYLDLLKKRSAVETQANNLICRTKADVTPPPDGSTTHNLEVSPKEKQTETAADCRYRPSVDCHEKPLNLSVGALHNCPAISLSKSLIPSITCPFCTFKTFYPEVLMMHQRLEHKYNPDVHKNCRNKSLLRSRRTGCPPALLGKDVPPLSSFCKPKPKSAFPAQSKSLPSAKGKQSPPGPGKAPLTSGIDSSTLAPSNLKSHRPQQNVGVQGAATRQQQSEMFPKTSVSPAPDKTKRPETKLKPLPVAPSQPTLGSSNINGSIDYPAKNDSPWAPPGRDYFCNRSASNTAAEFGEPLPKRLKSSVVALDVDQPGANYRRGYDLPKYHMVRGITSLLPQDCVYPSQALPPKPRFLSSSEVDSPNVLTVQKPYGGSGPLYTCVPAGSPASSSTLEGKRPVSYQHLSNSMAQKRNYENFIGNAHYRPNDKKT
UniProt O60927: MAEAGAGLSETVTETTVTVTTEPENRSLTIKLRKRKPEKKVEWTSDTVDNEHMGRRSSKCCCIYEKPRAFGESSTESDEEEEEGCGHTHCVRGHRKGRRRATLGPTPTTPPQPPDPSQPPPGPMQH
UniProt O75164: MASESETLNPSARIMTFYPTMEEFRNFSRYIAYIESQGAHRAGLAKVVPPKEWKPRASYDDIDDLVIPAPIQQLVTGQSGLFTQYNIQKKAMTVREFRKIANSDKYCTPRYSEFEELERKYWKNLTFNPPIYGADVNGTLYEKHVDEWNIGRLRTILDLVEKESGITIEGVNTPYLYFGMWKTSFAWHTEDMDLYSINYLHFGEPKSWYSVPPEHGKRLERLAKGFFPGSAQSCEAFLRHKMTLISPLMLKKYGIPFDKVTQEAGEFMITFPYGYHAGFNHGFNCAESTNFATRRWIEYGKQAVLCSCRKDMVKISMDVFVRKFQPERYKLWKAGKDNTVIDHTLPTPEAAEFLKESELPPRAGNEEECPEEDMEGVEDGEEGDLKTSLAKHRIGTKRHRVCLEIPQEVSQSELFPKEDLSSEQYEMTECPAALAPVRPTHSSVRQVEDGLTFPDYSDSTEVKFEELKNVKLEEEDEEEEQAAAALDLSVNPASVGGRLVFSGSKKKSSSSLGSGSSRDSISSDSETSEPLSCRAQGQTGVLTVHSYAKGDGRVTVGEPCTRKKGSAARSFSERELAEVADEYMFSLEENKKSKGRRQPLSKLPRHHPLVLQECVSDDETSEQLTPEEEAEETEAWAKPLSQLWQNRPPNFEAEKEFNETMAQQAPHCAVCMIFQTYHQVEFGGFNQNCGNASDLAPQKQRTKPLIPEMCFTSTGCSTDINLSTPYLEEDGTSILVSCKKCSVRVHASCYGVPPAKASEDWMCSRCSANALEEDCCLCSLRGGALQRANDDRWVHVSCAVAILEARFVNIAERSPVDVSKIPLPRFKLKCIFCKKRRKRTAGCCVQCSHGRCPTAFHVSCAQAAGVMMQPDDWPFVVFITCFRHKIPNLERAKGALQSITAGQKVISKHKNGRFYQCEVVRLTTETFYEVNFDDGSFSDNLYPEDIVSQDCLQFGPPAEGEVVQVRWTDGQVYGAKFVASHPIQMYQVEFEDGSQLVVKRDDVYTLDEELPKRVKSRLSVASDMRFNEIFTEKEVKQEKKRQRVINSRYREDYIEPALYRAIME

± gives the standard deviation of the averaged measurements. The list shows a part of the results, in another mix than the full data. Small differences around the control level are noise.

With CDS2 (UniProt O95674), the NP40-soluble protein abundance was 0.968 ± 0.02 (concentration: 0.1mM) and 1.01 ± 0.039 (concentration: 0.5mM).
In the case of SLC16A7 (UniProt O60669), the NP40-soluble protein abundance is, setting by setting: (concentration: 0.1mM) 0.971 ± 0.028; (concentration: 0.5mM) 0.981 ± 0.022.
On to LYPLA2 (UniProt O95372), for which the NP40-soluble protein abundance runs as follows: (concentration: 0.1mM) 1.02 ± 0.041; (concentration: 0.5mM) 1 ± 0.025.
On to PALM (UniProt O75781), for which the NP40-soluble protein abundance (concentration: 0.1mM) was found to be 0.974 ± 0.016 and the NP40-soluble protein abundance (concentration: 0.5mM) came out at 0.943 ± 0.025.
The like results for GMDS (UniProt O60547) were, in that order, 1.04 ± 0.027 and 1 ± 0.036.
On to UniProt O60508 and related entries, for which the NP40-soluble protein abundance runs as follows: (concentration: 0.1mM) 0.993 ± 0.027; (concentration: 0.5mM) 0.989 ± 0.058.
With UniProt O43929 and related entries, the NP40-soluble protein abundance runs as follows: (concentration: 0.1mM) 0.973 ± 0.051; (concentration: 0.5mM) 0.984 ± 0.067.
In the case of NDUFS6 (UniProt O75380), the NP40-soluble protein abundance amounted to 0.962 ± 0.042 (concentration: 0.1mM) and 1.02 ± 0.076 (concentration: 0.5mM).
For UniProt O60499 and related entries, the NP40-soluble protein abundance (concentration: 0.1mM) turned out to be 1.04 ± 0.037 and the NP40-soluble protein abundance (concentration: 0.5mM) was 1.032 ± 0.0074.
On to NDUFS5 (UniProt O43920), for which the NP40-soluble protein abundance (concentration: 0.1mM) was determined as 1.01 ± 0.029 and the NP40-soluble protein abundance (concentration: 0.5mM) is 1.05 ± 0.1.
Turning to ZBED4 (UniProt O75132), the NP40-soluble protein abundance (concentration: 0.1mM) was found to be 1.01 ± 0.025 and the NP40-soluble protein abundance (concentration: 0.5mM) came to 0.993 ± 0.037.
As for ARIH2 (UniProt O95376), the NP40-soluble protein abundance by setting is: (concentration: 0.1mM) 0.978 ± 0.01; (concentration: 0.5mM) 0.989 ± 0.079.
For GRAP2 (UniProt O75791), the NP40-soluble protein abundance is 1.057 ± 0.0065 (concentration: 0.1mM) and 0.988 ± 0.063 (concentration: 0.5mM).
In the same order, the values of SRP72 (UniProt O76094) are 0.982 ± 0.024 and 1.02 ± 0.04.
STAM2 (UniProt O75886): the NP40-soluble protein abundance is 0.972 ± 0.01 (concentration: 0.1mM) and 1.01 ± 0.051 (concentration: 0.5mM).
Turning to CTSV (UniProt O60911), the NP40-soluble protein abundance is 0.971 ± 0.04 (concentration: 0.1mM) and 1.02 ± 0.045 (concentration: 0.5mM).
In the same order, the values of COQ9 (UniProt O75208) are 0.96 ± 0.057 and 0.986 ± 0.07.
In the same order, the values of UniProt O95218-2 are 0.983 ± 0.022 and 1.04 ± 0.072.
For the target ZNF217 (UniProt O75362), the NP40-soluble protein abundance (concentration: 0.1mM) worked out at 0.981 ± 0.039 and the NP40-soluble protein abundance (concentration: 0.5mM) worked out at 1 ± 0.032.
For PPP1R11 (UniProt O60927), the NP40-soluble protein abundance reads like this: (concentration: 0.1mM) 1 ± 0.025; (concentration: 0.5mM) 1.02 ± 0.019.
The like results for UniProt O60488 and related entries were, in that order, 1.02 ± 0.018 and 1.05 ± 0.014.
For the target KATNA1 (UniProt O75449), the NP40-soluble protein abundance by setting is: (concentration: 0.1mM) 1 ± 0.041; (concentration: 0.5mM) 0.974 ± 0.03.
For the target UniProt O75164, the NP40-soluble protein abundance reads like this: (concentration: 0.1mM) 0.977 ± 0.027; (concentration: 0.5mM) 0.956 ± 0.037.
